Source: PubChem BioAssay AID1159584 (Peter MacCallum Cancer Centre, 2016)

Aim: 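Knock-downs that harm CDH1-null cells more than parental MCF10A cells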 (primary screen)
Cells: human MCF10A breast epithelial cells, parental and CDH1-null
Reagent: siRNA against human genes
Read-out: 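Cell viability by CellTiter-Glo ATP luminescence, each line scaled to the mean of mock wells across plates, then CDH1-null over parental ratio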
Scale: CDH1-null / parental viability ratio: higher = CDH1-null cells survive relatively better than parental; CDH1-null viability vs mock: higher = more viable CDH1-null cells
This is one part, drawn at random, of about 18,000 reagents. Not all columns of the deposit are shown. Not given: the amount of reagent, the time to read-out.

The opening 5 records, ahead of the listing:
target gene | CDH1-null / parental viability ratio | CDH1-null viability vs mock (fraction of mock)
GRM6 | 0.85 | 0.94
UTY | 0.97 | 0.93
SMAD2 | 1.11 | 0.84
IL31RA | 1.09 | 0.97
AP1B1 | 1.25 | 0.96

The list itself, repeating the preview:
target gene | CDH1-null / parental viability ratio | CDH1-null viability vs mock (fraction of mock)
GRM6 | 0.85 | 0.94
UTY | 0.97 | 0.93
SMAD2 | 1.11 | 0.84
IL31RA | 1.09 | 0.97
AP1B1 | 1.25 | 0.96
LY6G5C | 0.98 | 0.86
TBX21 | 1.17 | 0.96
SKIDA1 | 0.69 | 0.55
BPNT2 | 1.15 | 0.99
OR4D10 | 1.11 | 0.71
PEMT | 0.99 | 0.81
TRUB2 | 1.15 | 0.62
DAPK2 | 0.9 | 0.86
SUCO | 0.85 | 0.55
AZI2 | 0.92 | 0.96
ASIC1 | 1.26 | 1.01
COMTD1 | 1.09 | 1
TFIP11 | 0.97 | 0.33
NKAIN3 | 1.07 | 1.08
ZNF546 | 1.04 | 0.54
SERPINB3 | 1.01 | 0.8
LPCAT2 | 0.98 | 0.59
MTUS2 | 1.24 | 0.42
MED13L | 1.08 | 0.78
OR4F3 | 1.67 | 1.1
IL13RA2 | 0.83 | 0.65
RB1CC1 | 1.15 | 0.75
DGKQ | 0.96 | 0.82
TBC1D10A | 1 | 0.86
LOX | 1.02 | 1.1
BGLAP | 1.09 | 0.98
KIF18A | 0.99 | 0.98
TRIM67 | 1.01 | 0.96
RBM46 | 1.06 | 1
MAGEF1 | 0.81 | 0.63
NUP62CL | 0.83 | 1.02
SAMD11 | 0.95 | 0.8
FGF2 | 1 | 1
PHLDB1 | 0.9 | 0.6
MBTPS2 | 1.1 | 0.86
ATXN3 | 1.03 | 1.23
B3GNT3 | 0.95 | 0.96
MS4A5 | 1.31 | 0.92
GNL3L | 0.8 | 0.6
RNASE10 | 1.29 | 0.9
WASH5P | 1.06 | 1.02
